This test concerns DU145 cells. Conditions: DU145, 150 ng/ml, 4 days.

For `CN[C@@H]1C[C@H]2O[C@@](C)([C@@H]1OC)n1c3ccccc3c3c4c(c5c6ccccc6n2c5c31)C(=O)NC4` [staurosporine], the killing was approximately 20%.

These data come from US6468547B1, “Enhancement of tumor cell chemosensitivity and radiosensitivity using single chain secretory antibodies” (UAB Research Foundation, priority 1996, dated 2002).
